Assay results published in patent US9933424 (SEOUL NATIONAL UNIVERSITY HOSPITAL, dated 2018).
These are yes or no findings as the source states them, for the method shown. For part of these data: In cells and extracts the contact can be indirect. Some entries that bind do so weakly or less than the wild type. Values belong to the molecule of their own block, whether it stands above or below them.

Experiments:
[1] = target: adenylyl cyclase-associated protein 1 (CAP1), human, of THP-1 cells (human) (UniProt Q01518); experiment: co-immunoprecipitation from THP-1 cell extracts with anti-CAP1 or anti-resistin antibody, western blot
[2] = target: mFc-human resistin fusion protein (mouse Fc region of immunoglobulin fused to the N-terminus of human resistin) (mouse; human) (UniProt Q9HD89); experiment: far western blotting: mFc-human resistin on PVDF membrane, renatured, probed with recombinant human CAP1, anti-CAP1 detection
[3] = target: T1, recombinant human CAP1 protein (human), Q01518; experiment: competition ELISA on plate-coated recombinant CAP1; competitor of mFc-human resistin (0.05, 0.5, 1 ug), anti-mFc-HRP, absorbance at 450 nm; settings: remark: other sources report otherwise
T1 chain: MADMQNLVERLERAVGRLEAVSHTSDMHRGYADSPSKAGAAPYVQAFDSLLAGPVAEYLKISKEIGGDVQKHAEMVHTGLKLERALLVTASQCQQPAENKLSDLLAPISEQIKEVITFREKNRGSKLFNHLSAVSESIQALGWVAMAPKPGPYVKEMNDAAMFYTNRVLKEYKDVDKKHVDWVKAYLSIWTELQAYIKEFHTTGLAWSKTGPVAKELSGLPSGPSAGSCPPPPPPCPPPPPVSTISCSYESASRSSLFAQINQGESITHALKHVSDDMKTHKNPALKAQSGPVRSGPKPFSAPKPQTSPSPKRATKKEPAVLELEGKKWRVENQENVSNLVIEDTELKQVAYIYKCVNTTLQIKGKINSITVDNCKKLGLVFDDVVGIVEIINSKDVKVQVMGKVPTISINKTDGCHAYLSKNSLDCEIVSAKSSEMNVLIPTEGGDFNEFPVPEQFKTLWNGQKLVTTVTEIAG

binding [1]: binds
Molecule: human resistin in THP-1 cell extracts (from UniProt Q9HD89 19-108) (ligand)

binding [2]: binds
Molecule: recombinant human CAP1 protein (from UniProt Q01518 1-475) (receptor; other documents disagree on this pair)

binding [3]: binds
B1: recombinant human resistin protein, Q9HD89 19-108 (ligand, UniProt Q9HD89 19-108, looked up)
chain: KTLCSMEEAINERIQEVAGSLIFRAISSIGLECQSVTSRGDLATCPRGFAVTGCTCGSACGSWDVRAETTCHCQCAGMDWTGARCCRVQP
